Literature values, collected in PMC10846865, “The Blood-Brain Barrier: Implications for Experimental Cancer Therapeutics” (Annual review of cancer biology, 2023).

Settings: cited from earlier work

SMILES	Detection by MALDI (in tissue, ref Mass spectrometry imaging of cassette-dosed drugs for higher throughput pharmacokinetic and biodistribution analysis)	LOD (MALDI-MS, CHCA matrix, ref Rapid and widespread distribution of doxycycline in rat brain: a mass spectrometric imaging study.) [ng/mL]
CCc1cccc2cc(C(O)CNC(C)(C)C)oc12 (centres unmarked) [Bufuralol]	Positive ion mode: m/z 262.2 > 188.1 Not detected by MALDI in tissue, Detected without tissue by MALDI	–
C[C@H]1c2cccc(O)c2C(O)=C2C(=O)[C@]3(O)C(O)=C(C(N)=O)C(=O)[C@@H](N(C)C)[C@@H]3[C@@H](O)[C@@H]21 [Doxycyclin]	–	100
